PubChem BioAssay AID1224830, NIAID – 2016
The whole screen tested about 18,000 reagents; this is a part drawn at random. About 2,900 of them (16%) count as active. 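Calls are made per well; low scores hint the gene aids the LPS response, high scores that it dampens it.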 Repeated entries: four replicate wells of each siRNA pool.

- Aim: 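Genes whose knock-down alters the TNF-alpha reporter response to LPS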 (primary screen)
- Cells: human THP-1 monocytic leukaemia cells, TNF dual-luciferase reporter clone, PMA-differentiated to macrophage-like cells
- Knock-down reagent: siRNA pool against human genes, 50 nM
- Duration: LPS for 4 h, given about 3 days after siRNA transfection
- Challenge: bacterial LPS (TLR4 ligand), 10 ng/ml
- Measured: 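Ratio of firefly to renilla light, scaled to the plate median and expressed as a robust z-score per replicate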
- Direction: TNF reporter robust z-score: higher = stronger TNF reporter response to LPS
- Call rule: 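Each well counts as active if its z-score is over 2.8 or under -1.5; controls are left without a call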

target	TNF reporter robust z-score	activity call
ANKRD45 (GeneID 339416)	0.7	inactive
ANKRD45 (GeneID 339416)	-0.84	inactive
ANKRD45 (GeneID 339416)	-1.14	inactive
ANKRD45 (GeneID 339416)	-0.81	inactive
WDR11 (GeneID 55717)	0.67	inactive
WDR11 (GeneID 55717)	-0.04	inactive
WDR11 (GeneID 55717)	-0.49	inactive
WDR11 (GeneID 55717)	-0.5	inactive
PBOV1 (GeneID 59351)	-0.46	inactive
PBOV1 (GeneID 59351)	0.54	inactive
PBOV1 (GeneID 59351)	1.8	inactive
PBOV1 (GeneID 59351)	-0.4	inactive
ALCAM (GeneID 214)	-1.13	inactive
ALCAM (GeneID 214)	-0.89	inactive
ALCAM (GeneID 214)	-1.35	inactive
ALCAM (GeneID 214)	-1.73	active
RALY (GeneID 22913)	2.13	inactive
RALY (GeneID 22913)	2.2	inactive
RALY (GeneID 22913)	-0.76	inactive
RALY (GeneID 22913)	-0.24	inactive
ADGRA1 (GeneID 84435)	-0.89	inactive
ADGRA1 (GeneID 84435)	-1.29	inactive
ADGRA1 (GeneID 84435)	-1.25	inactive
ADGRA1 (GeneID 84435)	-0.28	inactive
SZRD1 (GeneID 26099)	0.32	inactive
SZRD1 (GeneID 26099)	-1.36	inactive
SZRD1 (GeneID 26099)	-1.47	inactive
SZRD1 (GeneID 26099)	-0.16	inactive
CREB3L1 (GeneID 90993)	-1.25	inactive
CREB3L1 (GeneID 90993)	-0.73	inactive
CREB3L1 (GeneID 90993)	-1.39	inactive
CREB3L1 (GeneID 90993)	-1.11	inactive
CCKBR (GeneID 887)	-0.15	inactive
CCKBR (GeneID 887)	0.9	inactive
CCKBR (GeneID 887)	0.96	inactive
CCKBR (GeneID 887)	0.01	inactive
VPS52 (GeneID 6293)	-0.44	inactive
VPS52 (GeneID 6293)	-0.53	inactive
VPS52 (GeneID 6293)	-0.77	inactive
VPS52 (GeneID 6293)	-0.99	inactive
TOP3A (GeneID 7156)	-0.36	inactive
TOP3A (GeneID 7156)	1.66	inactive
TOP3A (GeneID 7156)	-0.1	inactive
TOP3A (GeneID 7156)	-0.13	inactive
SOS2 (GeneID 6655)	-0.01	inactive
SOS2 (GeneID 6655)	0.51	inactive
SOS2 (GeneID 6655)	-0.81	inactive
SOS2 (GeneID 6655)	0.99	inactive
LRRC1 (GeneID 55227)	0.19	inactive
LRRC1 (GeneID 55227)	0.05	inactive
LRRC1 (GeneID 55227)	0.43	inactive
LRRC1 (GeneID 55227)	0.07	inactive
COLGALT1 (GeneID 79709)	-0.45	inactive
COLGALT1 (GeneID 79709)	-0.8	inactive
COLGALT1 (GeneID 79709)	1.1	inactive
COLGALT1 (GeneID 79709)	1.59	inactive
UBL3 (GeneID 5412)	-0.97	inactive
UBL3 (GeneID 5412)	0.46	inactive
UBL3 (GeneID 5412)	-0.54	inactive
UBL3 (GeneID 5412)	-0.13	inactive
LETM1 (GeneID 3954)	-0.8	inactive
LETM1 (GeneID 3954)	-0.58	inactive
LETM1 (GeneID 3954)	-0.9	inactive
LETM1 (GeneID 3954)	-0.88	inactive
KLK6 (GeneID 5653)	1.2	inactive
KLK6 (GeneID 5653)	6.6	active
KLK6 (GeneID 5653)	2.07	inactive
KLK6 (GeneID 5653)	5.34	active
EID1 (GeneID 23741)	-0.58	inactive
EID1 (GeneID 23741)	0.92	inactive
EID1 (GeneID 23741)	-0.11	inactive
EID1 (GeneID 23741)	0.07	inactive
SMYD3 (GeneID 64754)	1.32	inactive
SMYD3 (GeneID 64754)	2.82	active
SMYD3 (GeneID 64754)	3.25	active
SMYD3 (GeneID 64754)	1.61	inactive
